Measurements reported in PubChem BioAssay AID1259425 (University of Nebraska Medical Center, 2018).

Purpose: 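Seek colon cancer weak points whose silencing resembles KSR1 loss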 (primary screen)
System: HCT116 human colon cancer cells
Reagents: siRNA pool against human genes, 50 nM siRNA
Measured: 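After 50 nM siRNA pool, branched-DNA assay measures six marker transcripts per well, minus blank, normalised to the geometric mean of two housekeeping transcripts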
Reading the numbers: BNIP3L mRNA: higher = more BNIP3L transcript after knockdown
The deposit covers about 14,000 reagents; shown is a part drawn at random. Further read-outs or replicates are left out here. Not given: the time to read-out.

no.	Gene	BNIP3L mRNA, set 1
1	MED23 (GeneID 9439)	0.142
2	TULP2 (GeneID 7288)	0.121
3	BLM (GeneID 641)	0.0495
4	PSMA4 (GeneID 5685)	0.246
5	CST7 (GeneID 8530)	0.0339
6	ALDH1A1 (GeneID 216)	0.0973
7	ASPHD2 (GeneID 57168)	0.195
8	UFSP2 (GeneID 55325)	0.0769
9	UQCRQ (GeneID 27089)	0.156
10	BTC (GeneID 685)	0.166
11	TMC5 (GeneID 79838)	0.117

Continued; the last 2 above are carried over.
no.	Gene	BNIP3L mRNA, set 1
10	BTC (GeneID 685)	0.166
11	TMC5 (GeneID 79838)	0.117
12	DUSP22 (GeneID 56940)	0.0589
13	GPAA1 (GeneID 8733)	0.194
14	PAWR (GeneID 5074)	0.124
15	SLC9A3-OT1 (GeneID 25845)	0.0943
16	CDX4 (GeneID 1046)	0.163
17	EVI5L (GeneID 115704)	0.139
18	MED15 (GeneID 51586)	0.195
19	RNASE2 (GeneID 6036)	0.325
20	G3BP2 (GeneID 9908)	0.0828
